The record followed here is the supplement of paper PMC10735217.

The structures appear in SMILES notation. Several values for one entry are separate records, joined by “and”; a condition that tells them apart may be missing. Equal values may be shown once. Where a name gives a salt, the structure may show the parent alone. This is one part of the list. Repeats in this data set agree poorly, so a single value says little.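 Human kidney-derived cells stably carry a construct in which eight TEAD-binding elements drive luciferase, measured by luminescence in a drug-repurposing library screen. A hit is any compound whose signal exceeds the plate mean by more than five robust Z scores.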

The test deals with HEK293A TEAD-LUC reporter. Description: TEAD-luciferase reporter activity (YAP activation), robust Z score vs plate; higher = stronger YAP/TEAD activation. The note with it: 24 h. A general note: In a reporter assay the amount or activity of a reporter protein is the signal.

In the case of `COCCOC(=O)C1=C(C)NC(C)=C(C(=O)OCCOC)C1c1ccc(C)o1`, the TEAD-luciferase reporter activity runs as follows: (compound concentration: 200 nM) inactive: 3.34; (compound concentration: 2 uM) inactive: -0.372; (compound concentration: 10 uM) inactive: -0.371.
For `CCNC(=O)c1nc(-c2ccnn2-c2ccc(C#N)cc2)c(C)n(-c2cccc(C(F)(F)F)c2)c1=O`, in that order: inactive: -1.28, inactive: -0.306 and inactive: -1.52.
For the molecule `CNCCC(Oc1cccc2ccccc12)c1cccs1` (centres undefined) [duloxetine hydrochloride], the TEAD-luciferase reporter activity (compound concentration: 200 nM) was inactive: -0.514, the TEAD-luciferase reporter activity (compound concentration: 2 uM) was inactive: -0.813 and the TEAD-luciferase reporter activity (compound concentration: 10 uM) is inactive: 2.01.
Taken in the same sequence, the figures for `CCCCCCCC/C(=C\CCCCCCCC(=O)O)[N+](=O)[O-]` were inactive: 1.37, inactive: 1.12 and inactive: 0.482.
For `O=C(c1cc(Cc2n[nH]c(=O)c3ccccc23)ccc1F)N1CCN(C(=O)C2CC2)CC1` [olaparib], in that order: active: 9.11, inactive: -0.764 and inactive: -1.03.
Consider `CC/C=C\C/C=C\C/C=C\C/C=C\C/C=C\CCCC(=O)OCC` [ethyl icosapentate], for which the TEAD-luciferase reporter activity (compound concentration: 200 nM) is inactive: -0.678, the TEAD-luciferase reporter activity (compound concentration: 2 uM) is inactive: 0.0829 and the TEAD-luciferase reporter activity (compound concentration: 10 uM) is inactive: 3.22.
Taken in the same sequence, the figures for `COc1c(N2C[C@@H](N)C3(CC3)C2)c(F)cc2c(=O)c(C(=O)O)cn([C@@H]3C[C@@H]3F)c12` were inactive: -0.142, inactive: -1.14 and inactive: -0.443.
As to `COc1ccc(CC(=O)N2CCC(C(=O)N3CCC(N4Cc5ccccc5C4=O)CC3)CC2)cc1`, the TEAD-luciferase reporter activity is inactive: -1.44 (compound concentration: 200 nM) and inactive: -1.1 (compound concentration: 10 uM).
Turning to `N#Cc1ccc(N2N=C3c4ccc(C(=O)N5CCC(O)CC5)nc4CC[C@@H]3[C@@H]2C2CCCC2)cc1Cl`, the TEAD-luciferase reporter activity reads like this: (compound concentration: 200 nM) inactive: 0.0497; (compound concentration: 2 uM) inactive: -1.4; (compound concentration: 10 uM) inactive: 1.15.
Turning to `CN(C)C(=O)Nc1cc(CNc2ccccc2C(=O)Nc2ccc3cn(C)nc3c2)ccn1`, the TEAD-luciferase reporter activity was inactive: 0.386 (compound concentration: 200 nM), inactive: -0.818 (compound concentration: 2 uM) and inactive: 1.28 (compound concentration: 10 uM).
For `COc1ccccc1-n1c(CN2CCN(c3ccc(C)cc3)C(C)C2)nc2ccccc2c1=O` (centres undefined), in that order: inactive: -2.2, inactive: -0.634 and inactive: -0.356.
Regarding `CC1(C)C=C(C(=O)NCCCN2C(=O)c3ccccc3C2=O)C(C)(C)N1`, the TEAD-luciferase reporter activity was inactive: 0.716 (compound concentration: 200 nM), inactive: 0.426 (compound concentration: 2 uM) and inactive: 2.23 (compound concentration: 10 uM).
Regarding `CCCOc1ccc(S(=O)(=O)NCCC2CCCN2C)cc1-c1nc2c(CCC)nn(C)c2c(=O)[nH]1` (centres undefined) [udenafil], the TEAD-luciferase reporter activity is inactive: -0.072 (compound concentration: 200 nM), inactive: 1.36 (compound concentration: 2 uM) and inactive: -0.477 (compound concentration: 10 uM).
Consider `COc1ccc(-c2nnc(C(=O)N3CC(Oc4ccc(CN5CC6(COC6)C5)cc4)C3)o2)cc1`, for which the TEAD-luciferase reporter activity was inactive: -0.459 (compound concentration: 200 nM), inactive: -0.232 (compound concentration: 2 uM) and inactive: -0.306 (compound concentration: 10 uM).
For `C[N+]1(CCCCCCCCCCCCCCCC[N+]2(C)CCCC2)CCCC1`, in that order: inactive: -2.62, inactive: 3.94 and inactive: -0.0596.
Taken in the same sequence, the figures for `CCOc1ccccc1O[C@@H](c1ccccc1)[C@H]1CNCCO1` [reboxetine] were inactive: -0.725, inactive: 0.537 and inactive: 0.435.
Taken in the same sequence, the figures for `CC[C@H](C)[C@H](N)C(=O)N[C@H]1CCC(=O)NCC(C(=O)N[C@@H](Cc2ccc(O)cc2)C(=O)N[C@@H](CCCNC(=N)N)C(=O)N[C@@H](CC(C)C)C(=O)N[C@@H](CCCNC(=N)N)C(=O)N[C@@H](Cc2ccc(O)cc2)C(N)=O)NC(=O)[C@@H]2CCCN2C(=O)[C@@H](NC(=O)[C@@H](N)[C@@H](C)CC)CCC(=O)NCC(C(=O)N[C@@H](Cc2ccc(O)cc2)C(=O)N[C@@H](CCCNC(=N)N)C(=O)N[C@@H](CC(C)C)C(=O)N[C@@H](CCCNC(=N)N)C(=O)N[C@@H](Cc2ccc(O)cc2)C(N)=O)NC(=O)[C@@H]2CCCN2C1=O` (some centres undefined) were inactive: 0.382, inactive: -0.771 and inactive: -1.27.
Regarding `CNC1CCN(C(=O)C[C@@H](Cc2ccccc2)C(=O)N[C@@H](CSC)C(=O)N[C@@H](CC2CCCCC2)[C@@H](O)C(=O)OC(C)C)CC1`, the TEAD-luciferase reporter activity is inactive: 2.48 (compound concentration: 200 nM), inactive: -0.713 (compound concentration: 2 uM) and inactive: 2.68 (compound concentration: 10 uM).
With `CC(=N)N1CCC(Oc2ccc(N(C/C(F)=C/c3cccc(C(=N)N)c3)S(=O)(=O)CC(=O)O)cc2C(N)=O)CC1`, the TEAD-luciferase reporter activity by setting is: (compound concentration: 200 nM) inactive: -0.658; (compound concentration: 2 uM) inactive: -0.555; (compound concentration: 10 uM) inactive: 1.27.
Taken in the same sequence, the figures for `Cc1ccc(NC(=O)c2ccc(CN3CC[C@H](N(C)C)C3)c(C(F)(F)F)c2)cc1Nc1nccc(-c2cncnc2)n1` [bafetinib] were inactive: -0.0704, inactive: 0.848 and inactive: 4.39.
For `Cn1c(=O)c(F)c(Nc2ccc(I)cc2F)c2c(=O)n(C[C@@H](O)CO)cnc21`, in that order: inactive: 0.226, inactive: -2.24 and inactive: -0.16.
Take `CC(C)(C)[C@H](NC(=O)[C@H](CCCc1ccc(Cl)cc1)CC(=O)NO)C(N)=O`: the TEAD-luciferase reporter activity is inactive: -0.0577 (compound concentration: 200 nM), inactive: -0.365 (compound concentration: 2 uM) and inactive: 0.751 (compound concentration: 10 uM).
On to `O=C(OCc1ccccc1)c1ccccc1`, for which the TEAD-luciferase reporter activity was inactive: -0.383 (compound concentration: 200 nM), inactive: -1.23 (compound concentration: 2 uM) and inactive: -0.766 (compound concentration: 10 uM).
`Cc1ccc(CNC2CCCCC2)c(C)c1`: the TEAD-luciferase reporter activity (compound concentration: 200 nM) was inactive: -1.8, the TEAD-luciferase reporter activity (compound concentration: 2 uM) was inactive: -0.627 and the TEAD-luciferase reporter activity (compound concentration: 10 uM) was inactive: 2.51.
Taken in the same sequence, the figures for `CC(CC(=O)c1ccc(-c2ccc(F)cc2F)cc1)C(=O)O` (centres undefined) [Flobufen] were inactive: -0.833, inactive: 0.447 and inactive: 1.76.
On to `Nc1ccc(-c2ccc(CN3CCOCC3)nc2)c2ccccc12`, for which the TEAD-luciferase reporter activity (compound concentration: 200 nM) was inactive: 0.764, the TEAD-luciferase reporter activity (compound concentration: 2 uM) was inactive: -0.538 and the TEAD-luciferase reporter activity (compound concentration: 10 uM) is inactive: -0.231.
For `c1ccc2c(c1)c1c(N3CCCC3)nc(N3CCCC3)nc1n2CCN1CCOCC1`, in that order: inactive: 0.155, inactive: 1.17 and inactive: -0.667.
For `CCCCCCCOC(=O)NC1=NC(=O)N(C2C[C@H](O)[C@@H](CO)O2)CN1` (some centres undefined), in that order: inactive: -0.856, inactive: -0.64 and inactive: 0.42.
As for `CN1C(=O)NC(=O)C1O` (centres undefined), the TEAD-luciferase reporter activity is inactive: -0.845 (compound concentration: 200 nM); inactive: -1.13 and inactive: -0.571 (compound concentration: 2 uM); inactive: 0.864 (compound concentration: 10 uM).
As to `CC#C[C@]1(O)CC[C@H]2[C@@H]3CCC4=CC(=O)CCC4=C3[C@@H](c3ccc(N(C)C)cc3)C[C@@]21C`, the TEAD-luciferase reporter activity (compound concentration: 200 nM) was inactive: -0.408 and the TEAD-luciferase reporter activity (compound concentration: 10 uM) was inactive: -0.402.
With `CC#C[C@]1(O)CC[C@H]2[C@@H]3CCC4=CC(=O)CCC4=C3[C@@H](c3ccc(N(C)C)cc3)C[C@@]21C` [mifepristone], the TEAD-luciferase reporter activity (compound concentration: 2 uM) was inactive: 0.262.
